# Primary screen of a compound library

Amino acid sequences for entries named in this document (tags omitted). Residues count along the entry.
UniProt Q8IDJ8, 1-583: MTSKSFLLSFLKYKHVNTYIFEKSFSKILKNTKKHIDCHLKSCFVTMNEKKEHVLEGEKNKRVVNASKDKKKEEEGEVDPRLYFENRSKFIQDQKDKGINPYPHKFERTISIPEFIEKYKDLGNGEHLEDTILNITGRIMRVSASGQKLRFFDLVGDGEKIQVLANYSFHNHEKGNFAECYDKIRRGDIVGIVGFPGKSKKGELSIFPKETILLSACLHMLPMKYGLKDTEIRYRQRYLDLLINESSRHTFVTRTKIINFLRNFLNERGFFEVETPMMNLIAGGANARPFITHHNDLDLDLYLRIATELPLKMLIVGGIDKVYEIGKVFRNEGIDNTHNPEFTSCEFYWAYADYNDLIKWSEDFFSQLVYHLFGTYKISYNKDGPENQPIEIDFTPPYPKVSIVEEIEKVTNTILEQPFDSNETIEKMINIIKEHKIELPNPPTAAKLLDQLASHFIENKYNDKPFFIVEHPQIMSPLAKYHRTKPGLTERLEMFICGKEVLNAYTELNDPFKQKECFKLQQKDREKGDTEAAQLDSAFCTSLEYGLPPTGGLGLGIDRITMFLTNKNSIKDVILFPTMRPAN
UniProt P9WPC5, whole entry: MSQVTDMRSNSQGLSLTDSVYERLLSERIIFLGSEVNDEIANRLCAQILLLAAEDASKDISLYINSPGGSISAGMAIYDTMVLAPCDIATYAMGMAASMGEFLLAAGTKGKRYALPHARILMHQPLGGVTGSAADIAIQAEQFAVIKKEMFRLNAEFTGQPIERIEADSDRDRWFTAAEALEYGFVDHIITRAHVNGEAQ
UniProt P9WPC3, whole entry partner: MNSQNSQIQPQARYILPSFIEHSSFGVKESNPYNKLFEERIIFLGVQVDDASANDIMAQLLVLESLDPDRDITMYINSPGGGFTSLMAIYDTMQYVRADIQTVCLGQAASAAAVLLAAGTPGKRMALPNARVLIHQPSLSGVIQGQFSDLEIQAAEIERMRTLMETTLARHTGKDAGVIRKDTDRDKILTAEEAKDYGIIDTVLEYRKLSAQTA
UniProt P9WFT3, whole entry: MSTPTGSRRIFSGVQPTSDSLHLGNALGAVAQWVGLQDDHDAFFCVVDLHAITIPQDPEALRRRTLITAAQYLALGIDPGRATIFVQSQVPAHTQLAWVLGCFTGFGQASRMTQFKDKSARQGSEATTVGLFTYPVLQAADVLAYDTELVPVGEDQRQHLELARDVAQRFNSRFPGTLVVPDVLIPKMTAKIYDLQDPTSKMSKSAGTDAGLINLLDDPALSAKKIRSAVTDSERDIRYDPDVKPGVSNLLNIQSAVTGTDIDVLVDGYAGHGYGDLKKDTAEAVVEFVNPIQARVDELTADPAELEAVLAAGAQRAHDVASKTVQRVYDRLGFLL

Source: ChEMBL document CHEMBL3988442, “University of Dundee, Small-Polar-MMV Screening Library” (2021).

The filed quantity is “Percent Effect” (%). The record does not define 0% and 100%; most values in the screen are far below 50% and negative numbers occur (in some assays of this library far below -100). This is an unselected part of the compounds tested. A dash means the value is not listed here; it may have been measured.

PfKRS1: 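Enzyme assay of the cytosolic lysyl-tRNA synthetase in 384-well plates, read by luminescence. Target: Lysine-tRNA ligase, Plasmodium falciparum 3D7 (UniProt Q8IDJ8). Compounds at 30 µM. Higher reads as stronger inhibition, judged from the few compounds that gave an IC50. Size under these conditions: about 69,000 compounds, about 49 of them at 50% or above in at least one test.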
ClpP1P2: 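ClpP1P2, Mycobacterium tuberculosis (UniProt P9WPC5 and UniProt P9WPC3). Protease assay of ClpP1P2, read by the AMC dye that it sets free. Tested at 50 µM. Higher reads as stronger inhibition, judged from the few compounds that gave an IC50. Most other retested compounds had strongly negative values. About 69,000 compounds were tested under these conditions; 0.015% (about 10) showed 50% or more at least once.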
MtTrpRS: 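Enzyme assay of tryptophanyl-tRNA synthetase; the read-out is not stated. Target: Tryptophan-tRNA ligase, Mycobacterium tuberculosis (UniProt P9WFT3). Tested at 10 µM. Direction is not recorded; retested compounds ran higher, which suggests that high means inhibition. Of about 65,000 compounds tested this way, about 64 (0.098%) reached 50% or more in at least one test.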

structure	PfKRS1	ClpP1P2	MtTrpRS
CNC(=O)CS(=O)(=O)C1CCN(S(=O)(=O)c2cccc(Cl)c2C)CC1	-3.568	-8.245	0.9382
CCN(c1cc(C)cc(C)c1)S(=O)(=O)c1cc(C(=O)O)cs1	0.9918	-1.361	2.224
Cc1cc(C)c(C(=O)N2CCC3(CCCN(CC(C)(C)C)C3)C2)[nH]1 (centres unmarked)	2.889	5.185	-1.273
Cn1cnnc1S(=O)(=O)Cc1cc(Cl)c2c(c1)OCO2	-2.606	9.732	1.351
COCc1nc(CNC2CSCCSC2)no1	11.7	12.61	2.916
CCOc1ncccc1C(=O)N1CCCC(n2nc(C)nc2C)C1 (centres unmarked)	10.19	-2.133	-2.034
CN(C)c1ccc(C(=O)N2CCCC(n3cccn3)C2)nn1 (centres unmarked)	1.64	-7.103	-5.598
OCCN(Cc1ccncc1)CC1(c2ccc(Cl)cc2)CC1	0.1287	-10.3	-8.104
CSC(C)C(=O)N1CCN(CCO)CC1 (centres unmarked)	1.214	12.88	-1.029
O=C(CCNS(=O)(=O)c1ccc2c(c1)CCCC2)NCc1ccoc1	7.253	-10.04	3.02
COc1ccc(C(CC(=O)O)NC(=O)c2cc(C)on2)cc1 (centres unmarked)	2.805	-4.841	1.718
CCc1nc(CN(C)C2CCN(CC(=O)N(C)C)C2)no1 (centres unmarked)	0.5764	-22.64	-1.817
CCn1ncc2c1C(COC)N(C(=O)c1cscn1)CC2 (centres unmarked)	-1.414	-7.059	-
O=C(Nc1cccnc1)[C@@H]1C[C@H]2OCC[C@H]2N(Cc2ccsc2)C1	2.137	13.77	1.822
O=S(=O)(N1CCCCCC1)N1CCN(Cc2ccc(F)cc2Br)CC1	3.62	-4.665	2.348
CC(C)(C)CC(=O)N1CCC(c2nn(CCN)c3nccnc23)C1 (centres unmarked)	-0.1141	-14.43	-
Cc1ccccc1CSc1nc(N)cc(N2CC[C@@H](O)C2)n1	0.7892	4.044	30.68
CC(O)CN(C)c1cc(C(F)(F)F)nc(-c2cccnc2)n1 (centres unmarked)	9.081	-3.19	1.086
CC(=O)NCCNC(=O)CN1CCN(Cc2nccn2C)C(C)C1 (centres unmarked)	-3.064	4.017	-5.539
CSCCc1nc(-c2ccc3c(c2)OCO3)n(C)n1	-0.1963	-6.769	0.09139
Cc1nc(C)n(CC2CCCN(Cc3nnc(-c4ccco4)o3)C2)n1 (centres unmarked)	7.951	-0.3216	-1.377
Cn1cnc2c1C(COCC1CC1)CN(C(=O)c1cccs1)C2 (centres unmarked)	-1.424	-3.803	23.82
CCN1CCOC(CNCc2ccccc2OCc2ccncc2)C1 (centres unmarked)	-0.8043	-20.2	20.9
COc1cccc(CNC(=O)CCOc2ccccc2C)c1	0.2654	11.13	-1.845
COc1cccc(C(=O)C2CCCN(c3nccc(N)n3)C2)c1 (centres unmarked)	2.373	-22.31	-1.051
NC(=O)C1(CCCc2ccccn2)CCCN(Cc2ncc[nH]2)C1 (centres unmarked)	2.775	-7.566	-
Cc1cnc(CN2CCN(c3ccnc(-c4ccccc4)n3)CC2)cn1	-0.7093	-6.286	6.019
CC(C)C(=O)NCc1cccc(N2CCCCC2=O)c1	9.196	14.58	-0.5473
CC(C)(C)C(=O)N1CCC2(COCc3cnc(N4CCOCC4)nc32)C1 (centres unmarked)	2.601	-1.808	2.01
CCc1nnc2sc(-c3cc(C(C)C)n[nH]3)nn12	2.091	-11.54	0.1897
O=C1OCCN1CCS(=O)(=O)c1cccc(Br)c1	0.6709	-0.3849	2.064
NC(=O)c1cc(C2CCCN(C(=O)CCc3ccncc3)C2)n[nH]1 (centres unmarked)	0.6224	-7.099	-2.466
COC(=O)CSc1nnc2[nH]c(=O)c3c(n12)CCCC3	2.705	12.39	1.748
CN(C)C(=O)[C@H]1C[C@H]2OCC[C@H]2N(Cc2ccc(F)cc2)C1	-0.5573	-1.019	-2.058
COCC(=O)N1C[C@H]2CCCC(OCc3cccnc3)[C@H]2C1 (some centres unmarked)	4.736	-4.023	-1.465
Cc1nc2c(c(C)c1CC(=O)Nc1cccc(C#N)c1)c(=O)[nH]n2C	-0.4492	9.724	-1.798
COC1COC2(CCN(Cc3ccccc3Cl)CC2)C1 (centres unmarked)	8.571	0.06419	1.608
COc1ccc(-c2cc(N)on2)cc1OC	4.489	3.497	-
Cc1noc(CN2CCN(CC(C)O)CC2)n1 (centres unmarked)	8.49	-3.404	-2.251
Cc1cc(S(C)(=O)=O)c(C)c(S(=O)(=O)N2CCCCCC2)c1	5.712	2.747	-1.763
Cc1cc(N2CCCC(c3nccnc3N(C)C)C2)ncn1 (centres unmarked)	0.3132	3.531	-2.995
O=C(O)CCc1cc2n(n1)CCCN(C(=O)c1ccc(F)cc1F)C2	0.8212	-0.3001	1.812
O=C(NCC1CC1)C1CCC2(CCN(C(=O)c3cccnc3)CC2)O1 (centres unmarked)	-1.471	-11.91	-2.985
COc1cc(Cc2nc3c([nH]2)CC(C)(C)CNC3=O)cc(OC)c1	3.713	-8.528	-5.176
Cc1ncc(CN(C)C(=O)Nc2cccc(CN3CCOC3=O)c2)s1	2.254	0.1497	-0.3096
CC(CC(=O)N1CCN(c2cnccn2)CC1)c1ccc(F)cc1 (centres unmarked)	1.812	-2.268	3.046
OCCc1ncnn1Cc1cccc(Cl)c1	-0.9642	14.76	-3.265
O=S(=O)(NCc1ccc(S(=O)(=O)N2CCCC2)s1)c1ccc(Cl)c(Cl)c1	1.915	-6.08	0.2101
COC(=O)N1CCC(Nc2cccc(F)c2C(C)=O)C1 (centres unmarked)	-0.08335	13.52	-3.561
Cn1cc(CNCC2(O)CCCN(Cc3ccc(F)c(F)c3)C2=O)cn1 (centres unmarked)	7.516	-14.67	1.356
CCn1cc(NC(=O)C2CCN(Cc3ccccc3)CC2)cn1	6.726	-8.446	3.987
Cc1cncc(C(=O)N2CCC3(CCCN(c4nncs4)C3)C2)c1 (centres unmarked)	3.007	7.156	-6.132
O=C(O)[C@]12CCCN(Cc3cccs3)C[C@H]1CN(c1ncccn1)C2	6.533	-1.832	-4.926
O=C(N[C@@H]1CN(Cc2cccc3[nH]ccc23)C[C@H]1O)c1cscn1	2.983	-4.976	-
COc1cccc(S(=O)(=O)N2C[C@@H](N(C)C)[C@H](C(C)C)C2)c1	-0.2323	-4.447	3.179
Cc1cccc(C(=O)N2CCN(S(C)(=O)=O)[C@@H](C)C2)c1C	-7.013	-3.014	-2.352
Cc1cnn(CC2CN(Cc3nc4cccnc4[nH]3)CCO2)c1 (centres unmarked)	-2.005	-51.32	15.8
COc1cccc(CN2CCCC(c3nn(C)c4nccnc34)C2)c1 (centres unmarked)	2.699	-4.229	-
Cc1ccsc1[C@@H]1CCN(C(=O)CCc2nc3ccccc3[nH]2)C[C@H]1O	6.84	-1.716	-0.4016

The last 7 entries again:

{"structure": "O=C(O)[C@]12CCCN(Cc3cccs3)C[C@H]1CN(c1ncccn1)C2", "PfKRS1": 6.533, "ClpP1P2": -1.832, "MtTrpRS": -4.926}
{"structure": "O=C(N[C@@H]1CN(Cc2cccc3[nH]ccc23)C[C@H]1O)c1cscn1", "PfKRS1": 2.983, "ClpP1P2": -4.976}
{"structure": "COc1cccc(S(=O)(=O)N2C[C@@H](N(C)C)[C@H](C(C)C)C2)c1", "PfKRS1": -0.2323, "ClpP1P2": -4.447, "MtTrpRS": 3.179}
{"structure": "Cc1cccc(C(=O)N2CCN(S(C)(=O)=O)[C@@H](C)C2)c1C", "PfKRS1": -7.013, "ClpP1P2": -3.014, "MtTrpRS": -2.352}
{"structure": "Cc1cnn(CC2CN(Cc3nc4cccnc4[nH]3)CCO2)c1", "stereo": "centres unmarked", "PfKRS1": -2.005, "ClpP1P2": -51.32, "MtTrpRS": 15.8}
{"structure": "COc1cccc(CN2CCCC(c3nn(C)c4nccnc34)C2)c1", "stereo": "centres unmarked", "PfKRS1": 2.699, "ClpP1P2": -4.229}
{"structure": "Cc1ccsc1[C@@H]1CCN(C(=O)CCc2nc3ccccc3[nH]2)C[C@H]1O", "PfKRS1": 6.84, "ClpP1P2": -1.716, "MtTrpRS": -0.4016}